Test results as given in the supplement of paper PMC4604168 (melanoma cell lines).
This is one part of the list. Repeats are few or missing, and single values can be far off.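 Imaging used 1,536-well plates; nuclei positive for cleaved PARP by antibody were divided by total DNA-stained nuclei to yield the apoptosis fraction. Doses for screening kept most cells viable, and cell lines differ markedly in resting and induced cleaved-PARP levels.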

What follows are molecules tested on WM1745 (assay: cleaved PARP positive nuclei fraction relative to DMSO control; melanoma cells; higher = more apoptosis). Settings: library dose: low library concentration; 72 h.

Structure (SMILES) | cleaved PARP positive nuclei fraction
Cc1cn(-c2cc(NC(=O)c3ccc(C)c(Nc4nccc(-c5cccnc5)n4)c3)cc(C(F)(F)F)c2)cn1 [nilotinib] + Nc1ncn([C@H]2C[C@H](O)[C@@H](CO)O2)c(=O)n1 [decitabine] (first compound 0.2 µM, partner dose 0.1 µM) | 100%
O=c1[nH]nc(Sc2ncc([N+](=O)[O-])s2)n1-c1ccc2c(c1)OCCO2 + OCCn1cc(-c2cnc3nnn(Cc4ccc5ncccc5c4)c3n2)cn1 [PF04217903] (first compound 0.2 µM, partner dose 1 µM) | 91.9%
Cc1ccc(Nc2nccc(N(C)c3ccc4c(C)n(C)nc4c3)n2)cc1S(N)(=O)=O [Pazopanib] + N#Cc1c(O)c2c(-c3ccc(-c4ccccc4O)cc3)csc2[nH]c1=O [A769662] (first compound 0.4 µM, partner dose 2 µM) | 81.7%
Cc1ccc(Nc2nccc(N(C)c3ccc4c(C)n(C)nc4c3)n2)cc1S(N)(=O)=O [Pazopanib] + CCc1ccc(CCOc2ccc(CC3SC(=O)NC3=O)cc2)nc1 [pioglitazone] (first compound 0.4 µM, partner dose 2 µM) | 104%

The molecules below were run on WM3526 in the same assay as above. Settings: library dose: low library concentration; 72 h.

Structure (SMILES) | cleaved PARP positive nuclei fraction
CC[C@]1(O)C[C@H]2CN(CCc3c([nH]c4ccccc34)[C@@](C(=O)OC)(c3cc4c(cc3OC)N(C=O)[C@H]3[C@@](O)(C(=O)OC)[C@H](OC(C)=O)[C@]5(CC)C=CCN6CC[C@]43[C@@H]65)C2)C1 [vincristine] + O=C(Nc1ccccc1)c1cc([N+](=O)[O-])ccc1Cl [GW9662] (first compound 0.0001 µM, partner dose 2 µM) | 327%
O=C(Nc1cc(C(F)(F)F)cc(C(F)(F)F)c1)c1cc(Cl)ccc1O + Cn1cnc2c(F)c(Nc3ccc(Br)cc3Cl)c(C(=O)NOCCO)cc21 [selumetinib] (first compound 0.016 µM, partner dose 0.015 µM) | 67.9%
O=C(/C=C/c1cccnc1)NCCCCC1CCN(C(=O)c2ccccc2)CC1 + COc1cc2c(Oc3ccc4[nH]c(C)cc4c3F)ncnc2cc1OCCCN1CCCC1 [cediranib] (first compound 0.01 µM, partner dose 0.4 µM) | 120%
CCCCCCCCCCCCCCCCCCOP(=O)([O-])OC1CC[N+](C)(C)CC1 [Perifosine] + CNC(=O)c1cc(Oc2ccc(NC(=O)Nc3ccc(Cl)c(C(F)(F)F)c3)cc2)ccn1 [sorafenib] (first compound 0.4 µM, partner dose 0.4 µM) | 131%
CCCCCCCCCCCCCCCCCCOP(=O)([O-])OC1CC[N+](C)(C)CC1 [Perifosine] + OCCn1cc(-c2cnc3nnn(Cc4ccc5ncccc5c4)c3n2)cn1 [PF04217903] (first compound 0.4 µM, partner dose 1 µM) | 80.7%
CC[C@]1(O)C[C@H]2CN(CCc3c([nH]c4ccccc34)[C@@](C(=O)OC)(c3cc4c(cc3OC)N(C=O)[C@H]3[C@@](O)(C(=O)OC)[C@H](OC(C)=O)[C@]5(CC)C=CCN6CC[C@]43[C@@H]65)C2)C1 [vincristine] + c1cc(-c2cnn3cc(-c4ccc(OCCN5CCCCC5)cc4)cnc23)ccn1 [Dorsomorphin] (first compound 0.0001 µM, partner dose 0.4 µM) | 118%
O=C(Nc1cc(C(F)(F)F)cc(C(F)(F)F)c1)c1cc(Cl)ccc1O + CS(=O)(=O)c1ccc(C(=O)Nc2ccc(Cl)c(-c3ccccn3)c2)c(Cl)c1 [vismodegib] (first compound 0.016 µM, partner dose 1 µM) | 129%
N#CC[C@H](C1CCCC1)n1cc(-c2ncnc3[nH]ccc23)cn1 [ruxolitinib] + CN1CCN(c2ccc3nc(-c4c(N)c5c(F)cccc5[nH]c4=O)[nH]c3c2)CC1 [Dovitinib] (first compound 1 µM, partner dose 0.1 µM) | 20%
CCCCCCCCCCCCCCCCCCOP(=O)([O-])OC1CC[N+](C)(C)CC1 [Perifosine] + Nc1ncn([C@H]2C[C@H](O)[C@@H](CO)O2)c(=O)n1 [decitabine] (first compound 0.4 µM, partner dose 0.1 µM) | 81.2%
O=c1[nH]nc(Sc2ncc([N+](=O)[O-])s2)n1-c1ccc2c(c1)OCCO2 + O=S(=O)(c1ccccc1)N(CC(F)(F)F)c1ccc(C(O)(C(F)(F)F)C(F)(F)F)cc1 [T0901317] (first compound 0.2 µM, partner dose 1.4 µM) | 271%
Cc1cc(Nc2cc(N3CCN(C)CC3)nc(Sc3ccc(NC(=O)C4CC4)cc3)n2)n[nH]1 [Tozasertib] + N#Cc1c(O)c2c(-c3ccc(-c4ccccc4O)cc3)csc2[nH]c1=O [A769662] (first compound 0.006 µM, partner dose 2 µM) | 75.5%
Cc1cn(-c2cc(NC(=O)c3ccc(C)c(Nc4nccc(-c5cccnc5)n4)c3)cc(C(F)(F)F)c2)cn1 [nilotinib] + CCCCCCCCCCCC1=C(O)C(=O)C=C(O)C1=O [Embelin] (first compound 0.2 µM, partner dose 1.2 µM) | 37.5%
O=C(Nc1cc(C(F)(F)F)cc(C(F)(F)F)c1)c1cc(Cl)ccc1O + NC(=O)c1ccc(N(C(N)=O)c2c(F)cccc2F)nc1-c1ccc(F)cc1F [VX702] (first compound 0.016 µM, partner dose 0.4 µM) | 39.6%
CC[C@]1(O)C[C@H]2CN(CCc3c([nH]c4ccccc34)[C@@](C(=O)OC)(c3cc4c(cc3OC)N(C=O)[C@H]3[C@@](O)(C(=O)OC)[C@H](OC(C)=O)[C@]5(CC)C=CCN6CC[C@]43[C@@H]65)C2)C1 [vincristine] + COc1cc2ncnc(Nc3ccc(Oc4ccccc4)cc3)c2cc1OC [SrcI1] (first compound 0.0001 µM, partner dose 2 µM) | 89.1%
Cc1cn(-c2cc(NC(=O)c3ccc(C)c(Nc4nccc(-c5cccnc5)n4)c3)cc(C(F)(F)F)c2)cn1 [nilotinib] + CN1CCN(c2ccc3nc(-c4c(N)c5c(F)cccc5[nH]c4=O)[nH]c3c2)CC1 [Dovitinib] (first compound 0.2 µM, partner dose 0.1 µM) | 19.8%
Cc1cc(Nc2cc(N3CCN(C)CC3)nc(Sc3ccc(NC(=O)C4CC4)cc3)n2)n[nH]1 [Tozasertib] + O=c1[nH]nc(Sc2ncc([N+](=O)[O-])s2)n1-c1ccc2c(c1)OCCO2 [BI78D3] (first compound 0.006 µM, partner dose 0.2 µM) | 78.2%
COc1cc([C@@H]2c3cc4c(cc3[C@@H](O[C@@H]3O[C@@H]5CO[C@@H](C)O[C@H]5[C@H](O)[C@H]3O)[C@H]3COC(=O)[C@H]23)OCO4)cc(OC)c1O [etoposide] + C=C(c1ccc(C(=O)O)cc1)c1cc2c(cc1C)C(C)(C)CCC2(C)C [Bexarotene] (first compound 0.02 µM, partner dose 2 µM) | 94.2%
N#CC[C@H](C1CCCC1)n1cc(-c2ncnc3[nH]ccc23)cn1 [ruxolitinib] + Clc1ccc(Nc2nnc(Cc3ccncc3)c3ccccc23)cc1 [vatalanib] (first compound 1 µM, partner dose 2 µM) | 17.5%
N#CC[C@H](C1CCCC1)n1cc(-c2ncnc3[nH]ccc23)cn1 [ruxolitinib] + CC(=O)O[C@@]12CO[C@@H]1C[C@H](O)[C@@]1(C)C(=O)[C@H](O)C3=C(C)[C@@H](OC(=O)[C@H](O)[C@@H](NC(=O)OC(C)(C)C)c4ccccc4)C[C@@](O)([C@@H](OC(=O)c4ccccc4)[C@H]21)C3(C)C [Docetaxel] (first compound 1 µM, partner dose 0.0001 µM) | 64.5%
N#CC[C@H](C1CCCC1)n1cc(-c2ncnc3[nH]ccc23)cn1 [ruxolitinib] + C[C@]1(O)C[C@@H](c2nc(-c3ccc4ccc(-c5ccccc5)nc4c3)c3c(N)nccn32)C1 [OSI906] (first compound 1 µM, partner dose 0.4 µM) | 37%
Cc1cn(-c2cc(NC(=O)c3ccc(C)c(Nc4nccc(-c5cccnc5)n4)c3)cc(C(F)(F)F)c2)cn1 [nilotinib] + O=C(O)C(=O)Nc1sc2c(c1C(=O)O)CCNC2 [TCS401] (first compound 0.2 µM, partner dose 1.66667 µM) | 155%
Cc1cc(Nc2cc(N3CCN(C)CC3)nc(Sc3ccc(NC(=O)C4CC4)cc3)n2)n[nH]1 [Tozasertib] + CS(=O)(=O)CCNCc1ccc(-c2ccc3ncnc(Nc4ccc(OCc5cccc(F)c5)c(Cl)c4)c3c2)o1 [lapatinib] (first compound 0.006 µM, partner dose 0.8 µM) | 52.8%
CC[C@]1(O)C[C@H]2CN(CCc3c([nH]c4ccccc34)[C@@](C(=O)OC)(c3cc4c(cc3OC)N(C=O)[C@H]3[C@@](O)(C(=O)OC)[C@H](OC(C)=O)[C@]5(CC)C=CCN6CC[C@]43[C@@H]65)C2)C1 [vincristine] + COc1ccc(-c2ccc3c(N4CCOCC4)nc(N4C[C@@H](C)O[C@@H](C)C4)nc3n2)cc1CO [KU0063794] (first compound 0.0001 µM, partner dose 0.02 µM) | 24.6%
O=C(Nc1cc(C(F)(F)F)cc(C(F)(F)F)c1)c1cc(Cl)ccc1O + Cn1nnc2c(C(N)=O)ncn2c1=O [temozolomide] (first compound 0.016 µM, partner dose 2 µM) | 85.1%

2 records drawn at random from those above:
Structure (SMILES) | cleaved PARP positive nuclei fraction
O=c1[nH]nc(Sc2ncc([N+](=O)[O-])s2)n1-c1ccc2c(c1)OCCO2 + O=S(=O)(c1ccccc1)N(CC(F)(F)F)c1ccc(C(O)(C(F)(F)F)C(F)(F)F)cc1 [T0901317] (first compound 0.2 µM, partner dose 1.4 µM) | 271%
Cc1cn(-c2cc(NC(=O)c3ccc(C)c(Nc4nccc(-c5cccnc5)n4)c3)cc(C(F)(F)F)c2)cn1 [nilotinib] + O=C(O)C(=O)Nc1sc2c(c1C(=O)O)CCNC2 [TCS401] (first compound 0.2 µM, partner dose 1.66667 µM) | 155%
